Experimental data reported in PubChem BioAssay AID1487 (National Center for Advancing Translational Sciences (NCATS), 2009).
The list shows a part of the results. Shown are side measurements of this screen, not its main read-out; they come without a call. Compounds called inactive in the main read-out are mostly missing here. Potencies come from curve fits of mixed quality, noted in brackets.

Assay: qHTS Assay for Modulators of Lamin A Splicing
Conditions: HeLa LMNA splicing GFP/RFP minigene ratio, 48 h
Summary of the method: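 S3 HeLa stable clones carrying a lamin A-EGFP splicing minigene plus DsRed2 were seeded at 600 cells/well in Opti-MEM with 2% FBS, pin-dosed and incubated 48 h at 37°C. Acumen cytometry (488 nm) gave the GFP/RFP total-intensity ratio.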

[1] = measured here: RFP viability control channel
[2] = measured here: GFP splicing reporter channel

SMILES	AC50 [1]	AC50 [2]
Cc1c2c(n3c(nc4ccccc43)c1C#N)N(c1ccccc1)CC2	0.251 µM [rising, full curve, poor fit]	
COc1ccc2c(c1OC)C(=O)OC2Nc1nc(-c2ccccc2)cs1 (stereo not given)	35.5 µM [falling, single point]	35.5 µM [falling, single point]
CCCCSc1nnc(CCCCCNC(=O)OC(C)(C)C)o1	25.1 µM [rising, single point]	12.6 µM [rising, single point]
Cc1cccc(N2CCN(C(=O)c3ccc(CS(=O)(=O)c4ccccc4C)o3)CC2C)c1 (stereo not given)	4.47 µM [rising, full curve]	10 µM [rising, partial curve, poor fit]
O=C1S/C(=C/c2ccccc2F)C(=O)N1CCN=C1NS(=O)(=O)c2ccccc21	14.1 µM [rising, partial curve, poor fit]	
CCOCCCNC(=O)c1cc(Sc2cccc(Cl)c2)nc2ccccc12		3.16 µM [falling, partial curve]
O=C(Nc1ccon1)c1ccc(Cl)s1	5.62 µM [rising, single point]	
Cc1ccc(/C=N/NC(=O)C2CC(=O)N(c3ccccc3)C2)s1 (stereo not given)	15.8 µM [rising, single point]	
CC(C)(C)c1ccc(C(=O)NCCC(=O)NCc2ccco2)cc1	11.2 µM [falling, partial curve]	11.2 µM [falling, single point]
Cc1cc(O)ccc1N/C=C1\CCCC1=O	35.5 µM [rising, single point]	35.5 µM [rising, single point]
COC(=O)c1ccc(OCC(=O)c2ccc(C)c(C)c2)cc1	0.158 µM [rising, full curve, poor fit]	
Cc1ccc(OCCOc2ccc(Br)cc2)c([N+](=O)[O-])n1	35.5 µM [rising, single point]	0.794 µM [rising, partial curve]
Cc1ccc(CC(=O)Nc2ccc3c(c2)N(C)C(=O)c2ccccc2S3)cc1		5.62 µM [falling, partial curve]
C=CCOC(=O)C1=C(C)NC(SCC(=O)Nc2nccs2)=C(C#N)C1c1ccc(Cl)cc1 (stereo not given)	20 µM [falling, partial curve]	22.4 µM [falling, single point]
COCCCn1c(=NC(=O)c2ccc3c(c2)OCO3)c(C#N)cc2c(=O)n3cccc(C)c3nc21	15.8 µM [rising, single point]	17.8 µM [rising, single point]
C(=C\c1ccccc1)/CN1CCN(C(c2ccccc2)c2ccccc2)CC1	0.00501 µM [falling, full curve, poor fit]	
COc1ccc(NC(=S)NNC(=O)c2cccs2)cc1	35.5 µM [rising, single point]	31.6 µM [rising, single point]
Cc1ccc(C)c(OCCSc2nnc(C)c(=O)[nH]2)c1	0.282 µM [rising, partial curve, poor fit]	
COc1cc2c(cc1OC)/C(=C/c1ccc(Br)cc1)C(=O)OC2	6.31 µM [rising, full curve, poor fit]	
O=C(NCc1ccccn1)C1CCN(S(=O)(=O)c2cccs2)CC1	0.447 µM [falling, full curve, poor fit]	1.12 µM [falling, full curve, poor fit]
CCN(Cc1cc2cc(C)ccc2[nH]c1=O)C(=O)c1cccc(OC)c1	15.8 µM [rising, single point]	
O=C(c1ccc(COc2c(F)c(F)cc(F)c2F)o1)N1CCN(c2ccc(Cl)cc2)CC1	11.2 µM [rising, partial curve]	
CC(=O)N1CCN(c2ccc(NC(=O)COc3ccc(Cl)cc3Cl)cc2)CC1	10 µM [rising, partial curve]	
Cc1ccc(C)c(S(=O)(=O)N2CCN(C(C)C(=O)Nc3ccccc3-c3ccccc3)CC2)c1 (stereo not given)	15.8 µM [rising, single point]	
O=[N+]([O-])c1ccc(COc2ncnc3ccccc23)cc1		0.0224 µM [falling, full curve]
Clc1ccccc1-c1nnc2sc(-c3ccc(Br)o3)nn12	22.4 µM [rising, partial curve, poor fit]	
CCCN(CCC)CCNC(=O)C1CCCN(S(=O)(=O)c2ccc3c(c2)oc(=O)n3C)C1 (stereo not given)	5.62 µM [falling, full curve]	

SMILES	AC50 [1]	AC50 [2]
COCCn1c(SCc2csc(-c3ccccc3)n2)nc2ccccc21	35.5 µM [rising, single point]	15.8 µM [rising, single point]
Fc1ccc(CN2CCc3nc(Nc4ccccc4)ncc3C2)cc1F	28.2 µM [falling, single point]	
OC(COc1ccc(Cl)c2ccccc12)CN1CCN(c2ccccn2)CC1 (stereo not given)	35.5 µM [rising, single point]	14.1 µM [rising, partial curve]
CN1C(=O)c2ccccc2Sc2ccc(NC(=O)COc3ccc(F)cc3)cc21	35.5 µM [rising, single point]	
COc1ccc(CCNc2ncnc3c2cnn3-c2ccc(C)cc2)cc1		35.5 µM [falling, single point]
COC(=O)c1ccc(OCC(O)CN(CCO)CCO)cc1 (stereo not given)	0.00447 µM [falling, full curve, poor fit]	
CC1CCCC(C)N1C(=O)CSc1nc2ccccc2c(=O)[nH]1 (stereo not given)	0.00316 µM [falling, full curve, poor fit]	
Cc1ccccc1OCCCCCn1ccnc1	10 µM [rising, partial curve]	
CCOC(=O)/C=C/C(=O)Nc1ccc(Oc2ccccc2)cc1	15.8 µM [falling, single point]	15.8 µM [falling, single point]
COc1ccc(OC)c2c(C)cc(NCCN3CCOCC3)nc12	11.2 µM [rising, single point]	10 µM [rising, partial curve]
COc1ccc(CC(=O)Nc2ccc(S(=O)(=O)NC(C)C)cc2)cc1	31.6 µM [rising, single point]	
CCOc1ccc(CSC2=NCCN2)cc1[N+](=O)[O-]	35.5 µM [rising, single point]	28.2 µM [rising, single point]
Cc1nn(-c2ccccc2)c(C)c1/C=N/NC(=O)c1cc(C23CC4CC(CC(C4)C2)C3)[nH]n1	12.6 µM [rising, partial curve]	
O=C(NNc1ccc([N+](=O)[O-])cc1[N+](=O)[O-])C1C2CCCCC21 (stereo not given)	7.94 µM [rising, partial curve]	7.08 µM [rising, full curve, poor fit]
CC1(C)C2CCC1(CS(=O)(=O)NC1CCCC1)C(=O)C2 (stereo not given)		5.01 µM [rising, full curve, poor fit]
Cc1cc(C(=O)CNCc2ccco2)c(C)n1-c1ccc(F)cc1	22.4 µM [rising, single point]	31.6 µM [rising, single point]
O=C(CSc1ccc(-c2ccc(Cl)cc2)nn1)N1CCCc2ccccc21	35.5 µM [rising, single point]	
CCc1cc2c(nc1CC)CCN(CC/C(C)=N/OC[C@H]1O[C@H](c3ccccc3)C=C[C@@H]1Oc1ccc(OC)cc1)C2	20 µM [rising, partial curve]	11.2 µM [rising, partial curve, poor fit]
O=C(NCCCN1CCOCC1)c1cccc(S(=O)(=O)Nc2cc(Cl)ccc2Cl)c1		0.178 µM [falling, full curve, poor fit]
O=C(Nc1nc(-c2cccs2)cs1)c1ccc(S(=O)(=O)N2CCCCC2)cc1	3.98 µM [rising, full curve, poor fit]	
CN(c1ccccc1)S(=O)(=O)c1cccc(C(=O)OCC(=O)NCCCN2CCCC2=O)c1	0.0891 µM [rising, partial curve]	0.00316 µM [rising, full curve, poor fit]
Cc1cc(/C=C2/NC(=O)N(Cc3ccccc3F)C2=O)c(C)n1-c1ccccn1	12.6 µM [rising, partial curve, poor fit]	14.1 µM [rising, single point]
COC(=O)C1=C(C(=O)OC)[C@@H]2Nc3ccccc3[C@@]23C[C@@H](C(=O)OC)N(C(=O)c2ccc(Br)cc2)C3=N1		0.355 µM [falling, partial curve, poor fit]
Cc1ccc(S(=O)(=O)/N=C(/Nc2ccc3[nH]c(=O)[nH]c3c2)c2ccc(F)cc2)cc1		0.0178 µM [rising, full curve]
O=C(CNC(=O)C12CC3CC(CC(C3)C1)C2)N1CCN(S(=O)(=O)/C=C/c2ccccc2)CC1	12.6 µM [rising, partial curve]	
Cc1cc(C)c(OCCNC(=O)c2ccccc2Sc2ccccc2C#N)c(C)c1	22.4 µM [rising, partial curve]	
Cc1cc(C)c2[nH]c(=O)c(CN(Cc3ccco3)C(=S)NCC3CCCO3)cc2c1 (stereo not given)	22.4 µM [rising, single point]	31.6 µM [rising, single point]

Looked up above:
For AC50 [1], COc1ccc(CC(=O)Nc2ccc(S(=O)(=O)NC(C)C)cc2)cc1 shows 31.6 µM [rising, single point]
For AC50 [1], CN1C(=O)c2ccccc2Sc2ccc(NC(=O)COc3ccc(F)cc3)cc21 shows 35.5 µM [rising, single point]
For AC50 [1], OC(COc1ccc(Cl)c2ccccc12)CN1CCN(c2ccccn2)CC1 (stereo not given) shows 35.5 µM [rising, single point]
For AC50 [1], Cc1cc(C)c(OCCNC(=O)c2ccccc2Sc2ccccc2C#N)c(C)c1 shows 22.4 µM [rising, partial curve]
For AC50 [1], Cc1nn(-c2ccccc2)c(C)c1/C=N/NC(=O)c1cc(C23CC4CC(CC(C4)C2)C3)[nH]n1 shows 12.6 µM [rising, partial curve]
